Source: the supplement of paper PMC10338343
± gives the standard deviation. The entries are a selection whose mix differs from that of the whole data set. Many of these values have a large error. The list shows a part of the results.

Tests used:
[1] = test system: MILI (PIWIL2) piRISC loaded with L1MC piRNA (26 nt); assay: pre-steady-state target cleavage rate (min^-1); higher = faster piRNA-guided slicing of the target; settings: guide: L1MC piRNA 5'p-UAACUAAAUACUAUGCAAGCUGUAGG
Procedure, shortened: (§1)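 With or without 500 nM GTSF1 partner protein, 1 nM active affinity-purified piRISC carrying one synthetic guide was mixed with 0.1 nM transcribed, DNA-blocked target RNA library in HEPES–potassium acetate buffer at 33 °C for 0–8 or 0–960 min. Uncleaved targets were sequenced and normalised to depth and to weakly complementary targets, three trials were pooled, and k3 was capped at 0.0001 min^-1. The pre-steady-state cleavage rate came from a burst-and-steady-state fit.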

[2] = test system: EfPiwi piRISC loaded with L1MC piRNA (26 nt); assay: pre-steady-state target cleavage rate (min^-1); guide: L1MC piRNA 5'p-UAACUAAAUACUAUGCAAGCUGUAGG; MIWI and MILI are mouse PIWI proteins and EfPiwi is from a freshwater sponge; tags in brackets are library labels; higher = faster piRNA-guided slicing of the target
Procedure, shortened: as §1

[3] = auxiliary factor: none (no GTSF1)
[4] = auxiliary factor: 500 nM Ephydatia muelleri Gtsf1
[5] = auxiliary factor: none (no Gtsf1)
[6] = auxiliary factor: 500 nM mouse GTSF1

Sequence | pre-steady-state target cleavage rate [1, 3] | pre-steady-state target cleavage rate [2, 4] | pre-steady-state target cleavage rate [2, 5] | pre-steady-state target cleavage rate [1, 6]
UCCUGGAUGUGCUUGCAUAGUAUUCAGUUA | 0.00227 ± 0.0037 | 0.00279 ± 0.0024 | 0.000916 ± 0.013 | –
UCCUGGAUGAGCUUGCAUAGUAUUAUCAAA | 0.000511 ± 0.012 | 0.000944 ± 0.005 | 0.000771 ± 0.0088 | –
UCCUGGAUGUCGAAGGAAAGUAUUUAGUUA | – | < 0.0001 | 0.000207 ± 0.027 | 0.000384 ± 0.018
UCCUGGAACAGCUUGGCAUAGUAUUUAGUUA | – | 0.0094 ± 0.0031 | 0.00052 ± 0.018 | 0.48 ± 0.097
UCCUGGAACAGCUUGCAUAGUAAUUUGUUA | 0.00222 ± 0.0035 | 0.0032 ± 0.002 | 0.000276 ± 0.03 | –
UCCUGGUACAGCUUGCAUAGUAUUAACUUA | 0.0031 ± 0.0032 | 0.0032 ± 0.0024 | 0.000258 ± 0.042 | –
UCCUCCUACAGCUAGCAUAGAAUUUAGUUA | 0.00134 ± 0.0042 | 0.00325 ± 0.0019 | 0.00079 ± 0.0069 | –
UCCUGGUACAGCUUGCAUAGUUUUUAGAUA | 0.00325 ± 0.0039 | 0.0023 ± 0.0041 | 0.000669 ± 0.019 | –
UCCUGGAUGAGCUUGCAUAGUAUUAACUUA | 0.00102 ± 0.0062 | 0.0012 ± 0.0038 | 0.000335 ± 0.024 | –
UCCUGGAUGUCGAUGCAUACAAUUUAGUUA | 0.00122 ± 0.005 | 0.000208 ± 0.012 | 0.00041 ± 0.015 | –
UCCUCCUACUGCUUGCAUAGUAUUUAGAAA | 0.00119 ± 0.0043 | 0.00462 ± 0.0021 | 0.000383 ± 0.0094 | –
UCCUGGAUGAGCUUGCAUAGUUUAUAGUUA | 0.00143 ± 0.0049 | 0.000576 ± 0.0056 | 0.000466 ± 0.017 | –
UCCUGGAACAGCUUGCAUAGUUAAUAGUAA | 0.00127 ± 0.0047 | 0.000547 ± 0.0088 | 0.000622 ± 0.012 | –
UCCUGGAUGAGCUUGCAAAGUAUUUACUUA | 0.00299 ± 0.0033 | 0.00103 ± 0.0042 | 0.000261 ± 0.033 | –
UCCUGGUACAGCUUGCAUAGUAUUGUAGUUA | 0.00296 ± 0.004 | 0.00235 ± 0.0028 | 0.000331 ± 0.028 | –
UCCUGGAACAGCUUGCAUACUAUUUAGAAA | 0.00115 ± 0.0042 | 0.00184 ± 0.0028 | 0.000211 ± 0.03 | –
UCCUGCAACAGCAUGCAUAGUAUUUAGUUA | – | 0.0232 ± 0.0055 | 0.00137 ± 0.006 | 0.329 ± 0.023
UCCUGGAUGAGCUUGCAUAGUAUUUUGAUA | 0.00132 ± 0.0041 | 0.00213 ± 0.0027 | 0.000905 ± 0.011 | –
UCCUGGAUGAGCUUCCAUAGUAAUUAGUUA | 0.00075 ± 0.0066 | 0.0016 ± 0.0049 | 0.000401 ± 0.021 | –
UCCUGGAUGUGCUUGCAAAGUAUUUAGAAA | 0.00148 ± 0.0037 | 0.000889 ± 0.0038 | 0.000675 ± 0.013 | –
UCCUGCUACAGCCUUGCAUAGUAUUUAGUUA | – | 0.0116 ± 0.0041 | 0.000742 ± 0.0079 | 0.308 ± 0.025
UCCUGGAUGUGCUUGCAUAGUAUUAUGUUA | 0.0017 ± 0.0051 | 0.000819 ± 0.0062 | 0.00054 ± 0.017 | –
UCCUGGAUGAGCUUGGAUAGUAUUUACAAA | 0.000214 ± 0.028 | 0.000598 ± 0.0062 | 0.000143 ± 0.056 | –
UCCUGGUACAGCUUGCUUAGAAUUUAGUUA | 0.00372 ± 0.0043 | 0.000699 ± 0.016 | 0.000267 ± 0.041 | –
UCCUGGAUGAGCUUGCAUAGUAUUUACUUA | 0.00173 ± 0.0033 | 0.00272 ± 0.0032 | 0.000473 ± 0.014 | –
UCCUGGUACAGCUUGCAUAGUAAUUUGUUA | 0.00207 ± 0.004 | 0.00282 ± 0.0025 | 0.000531 ± 0.018 | –

Two entries from above, comma-delimited.
Sequence,"pre-steady-state target cleavage rate [1, 3]","pre-steady-state target cleavage rate [2, 4]","pre-steady-state target cleavage rate [2, 5]","pre-steady-state target cleavage rate [1, 6]"
UCCUGGAACAGCUUGCAUACUAUUUAGAAA,0.00115 ± 0.0042,0.00184 ± 0.0028,0.000211 ± 0.03,–
UCCUGCAACAGCAUGCAUAGUAUUUAGUUA,–,0.0232 ± 0.0055,0.00137 ± 0.006,0.329 ± 0.023
